Results: PubChem BioAssay AID602313 (National Center for Advancing Translational Sciences (NCATS), 2012)
In all, about 390,000 compounds went through this assay and about 760 (0.19%) were called active. Inconclusive results, whose numbers are uncertain, are shown with a selection of clear calls. The call rests on the fitted dose curve; in most records, active means well fitted inhibition curve with a large enough effect; inconclusive means small, poorly fitted or top-dose-only effect; inactive means flat fitted curve, though single readings scatter. Potencies beside an inconclusive call are fits to weak or partial responses and may not hold up.

Test: qHTS for Inhibitors of Vif-A3F Interactions: qHTS; further: nearly all actives have a fitted effect of over 65% in size
Settings: HeLa A3F-eYFP + Vif (tagged APOBEC3F with the HIV-1 protein that degrades it), YFP fluorescence increase; series mostly up to 46.1 µM
In short: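 HeLa cells stably expressing A3F-eYFP plus Vif, plated and incubated overnight at 37 deg C, then exposed to compounds overnight at 37 deg C. Blocked degradation read as raised yellow fluorescence (Ex 488/Em 500-530).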
Potency means the concentration at half of the fitted maximal effect.

Compound	Potency
Cc1cccc(NC(=O)CNC(=O)c2cccc(S(=O)(=O)NCc3cccs3)c2)c1C	inconclusive: 2.51 µM [inhibitor, partial curve, poor fit]
CCN(CCS(=O)(=O)c1ccc(Cl)cc1)C(=O)Nc1ccc(Cl)cc1	inconclusive: 5.62 µM [inhibitor, single point]
Cc1ccc(OCCN2CCCC2)cc1	inactive
Cc1ccc(C(=O)N2CCN(Cc3cc(=O)n4nc(-c5ccccc5)sc4n3)CC2)cc1	inactive
COc1ccc(NC(=O)c2cc(-c3ccco3)nc3ccccc23)cc1	inactive
CC1(C)Cc2nc3sc4c(SCC(=O)NCc5ccco5)ncnc4c3cc2CO1	inconclusive: 15.8 µM [inhibitor, partial curve, poor fit]
CCOC(=O)C(C)Oc1ccc(=O)n(-c2ccccc2)n1 (configuration not stated)	inconclusive: 5.62 µM [inhibitor, single point]
C/C(CC(=O)NCc1ccco1)=N\NC(=O)c1ccc([N+](=O)[O-])cc1Cl	inconclusive: 35.5 µM [inhibitor, single point]
Cc1cc(/C=C2\Cc3ccccc3C2=O)c(C)n1-c1ccccc1	inconclusive: 20 µM [inhibitor, single point]
COc1ccc(C(=O)c2coc3c2C(=O)C(=O)c2ccccc2-3)cc1	inactive
CN(C)c1ccc(N/C=C/C(=O)c2ccc(F)cc2)cc1	inconclusive: 35.5 µM [inhibitor, single point]
CC(=O)c1cccc(NC(=O)c2cc(-c3ccco3)nc3ccccc23)c1	inconclusive: 35.5 µM [inhibitor, single point]
COc1ccc2nc(N3CCN(C(=O)c4ccc([N+](=O)[O-])o4)CC3)sc2c1	inconclusive: 5.62 µM [inhibitor, single point]
COc1ccc(Sc2ccc(-c3nc4cnccn4c3NC3CCCCC3)cc2OC)cc1	inconclusive: 35.5 µM [inhibitor, single point]
CNC(=O)C1CC(=O)N(Cc2ccc3c(c2)OCO3)C(=Nc2ccc(OC)cc2)S1 (configuration not stated)	inconclusive: 6.31 µM [inhibitor, partial curve, poor fit]
Cn1c(-c2ccccc2)cc2c3no[n+]([O-])c3ccc21	inconclusive: 3.55 µM [inhibitor, full curve]
CCCCCCSc1ccc([C@@H]2[C@@H]3C(=O)N(C)C(=O)[C@@H]3[C@]3(C(=O)OC)CCCCN23)cc1	inconclusive: 35.5 µM [inhibitor, single point]
COc1ccc(CN([C@H](C)CO)S(=O)(=O)N(Cc2ccccc2)[C@H](CO)C(C)C)cc1	inactive
CC1(C)CC(=O)C2=C(C1)NC1=C(C(=O)c3ccccc31)C2c1cc([N+](=O)[O-])ccc1O (configuration not stated)	inactive
CCOC(=O)COc1cc(Br)c(/C=N/Nc2ccccc2)cc1OC	inactive
CCCNC(=O)c1ccc2c(c1)nc(C)n2-c1cccc(C)c1	inconclusive: 35.5 µM [inhibitor, single point]

A few values from above.
Potency, CCN(CCS(=O)(=O)c1ccc(Cl)cc1)C(=O)Nc1ccc(Cl)cc1 is entered as inconclusive: 5.62 µM [inhibitor, single point]
Potency, CCOC(=O)COc1cc(Br)c(/C=N/Nc2ccccc2)cc1OC is entered as inactive

Next compounds

Compound	Potency
Cc1ccc2c(=O)c(C(=O)c3ccccc3)cn(CC(=O)Nc3ccc(C)c(Cl)c3)c2n1	inconclusive: 15.8 µM [inhibitor, partial curve, poor fit]
CCOc1ccccc1Nc1nc(-c2sc(C)nc2C)cs1	inconclusive: 2.51 µM [inhibitor, full curve]
COc1ccccc1CNC(=S)Nc1cc(C)ccc1C	inconclusive: 31.6 µM [inhibitor, single point]
CCCN1C/C(=C/c2ccc3c(c2)OCO3)C(=O)/C(=C/c2ccc3c(c2)OCO3)C1	inconclusive: 6.31 µM [inhibitor, single point]
CCOP(=O)(c1ccccc1)C(O)c1ccccc1 (configuration not stated)	inactive
CCOC(=O)c1c(NC(=O)CSc2nc3ccc(C)cc3[nH]2)sc2c1CC(C)(C)NC2(C)C	inconclusive: 35.5 µM [inhibitor, single point]
CC(=O)NC(c1cccc([N+](=O)[O-])c1)c1ccc2cccnc2c1O (configuration not stated)	inconclusive: 5.01 µM [inhibitor, single point]
COc1ccc2c(/C=C/c3cc[n+](C)cc3)c[nH]c2c1	active: 12.6 µM
O=C(NCc1ccccn1)Nc1ccccc1Cl	inconclusive: 1.26 µM [inhibitor, partial curve, poor fit]
COc1ccc(-c2ccc3c(N)c(C(=O)NCc4ccc(C)cc4)sc3n2)cc1	inactive
Nc1c(C(=O)Nc2nccs2)sc2nc(-c3cccs3)cc(C(F)(F)F)c12	inconclusive: 7.08 µM [inhibitor, partial curve, poor fit]
CCCCCCCCC/C(=N\O)c1ccccn1	inconclusive: 35.5 µM [inhibitor, single point]
Cc1ccc(CNc2nc3ccccc3s2)s1	inconclusive: 12.6 µM [inhibitor, partial curve, poor fit]
CN1c2ccccc2C(C)(C)C12C=Cc1cc(O)ccc1O2 (configuration not stated)	inconclusive: 35.5 µM [inhibitor, single point]
COC1=C/C(=C/c2c(N)n3nc(CC(=O)N4CCCC4)sc3nc2=O)C=CC1=O	inconclusive: 11.2 µM [inhibitor, partial curve, poor fit]
CC(=O)NCCc1ccc(S(=O)(=O)Nc2ccc(NC(=O)c3ccc(F)cc3)cc2)cc1	inconclusive: 5.62 µM [inhibitor, single point]
COc1ccccc1NC(=O)/C=C\c1ccco1	inconclusive: 20 µM [inhibitor, partial curve, poor fit]
CCN(CC)C(=O)CSC(Nc1cccc(F)c1)=C(C#N)C#N	active: 10 µM
COCCCN=C1NN=C(c2cc(C)n(Cc3ccccc3Cl)c2C)CS1	inconclusive: 35.5 µM [inhibitor, single point]
CCOC(=O)C1=C(CSc2nc(-c3ccccc3)ccc2C#N)OC(N)=C(C#N)C1c1ccc(OC)cc1 (configuration not stated)	inconclusive: 35.5 µM [inhibitor, single point]
Cc1cc(C(F)(F)F)nc(SCCN2CCOCC2)c1C#N	inconclusive: 22.4 µM [inhibitor, single point]
